According to publication PMC12631175:
Results are given in words; binding and its absence hold for the method and conditions named. Binding seen in cells or lysates may run through a third protein. A result given as binding can be weak or reduced; the word gives no strength.

By UniProt entry, the sequences of proteins in these tests, tags left out. Where a name states a change or a piece, a line headed by the entry shows the natural chain unless it says otherwise.
UniProt Q99988: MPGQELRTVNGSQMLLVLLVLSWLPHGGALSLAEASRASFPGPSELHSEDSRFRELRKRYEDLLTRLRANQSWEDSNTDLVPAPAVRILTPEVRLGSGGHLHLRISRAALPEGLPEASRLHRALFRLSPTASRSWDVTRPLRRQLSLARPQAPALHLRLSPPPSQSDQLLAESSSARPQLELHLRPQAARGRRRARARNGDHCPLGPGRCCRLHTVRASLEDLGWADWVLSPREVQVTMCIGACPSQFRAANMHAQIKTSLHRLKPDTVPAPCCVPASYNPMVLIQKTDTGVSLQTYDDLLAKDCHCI

Biological target: T1, NRF2 (human (endogenous in LN229 and U251)) (UniProt Q16236)
T1 sequence: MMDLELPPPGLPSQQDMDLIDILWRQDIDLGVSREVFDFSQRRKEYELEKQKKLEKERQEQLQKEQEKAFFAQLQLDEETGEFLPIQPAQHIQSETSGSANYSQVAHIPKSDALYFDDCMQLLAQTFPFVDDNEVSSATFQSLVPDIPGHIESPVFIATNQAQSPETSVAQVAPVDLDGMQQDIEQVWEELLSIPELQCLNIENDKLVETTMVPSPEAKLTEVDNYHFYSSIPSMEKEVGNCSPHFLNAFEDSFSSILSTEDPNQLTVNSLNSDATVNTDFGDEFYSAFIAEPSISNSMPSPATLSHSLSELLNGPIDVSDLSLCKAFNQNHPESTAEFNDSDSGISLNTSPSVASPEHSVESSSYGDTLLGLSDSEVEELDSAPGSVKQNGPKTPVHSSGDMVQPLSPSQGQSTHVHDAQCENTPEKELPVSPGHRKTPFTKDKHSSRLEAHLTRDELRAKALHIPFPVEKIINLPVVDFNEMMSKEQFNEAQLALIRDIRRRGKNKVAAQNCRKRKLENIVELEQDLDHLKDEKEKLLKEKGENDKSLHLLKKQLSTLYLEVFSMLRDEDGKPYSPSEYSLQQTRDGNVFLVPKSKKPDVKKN
Experiment: co-IP; endogenous proteins in LN229 and U251 cell lysates (IP buffer with protease inhibitors); primary antibody at 4°C for 12 hours, protein A/G beads for 2 hours, four washes with ice-cold PBS, Western blot

- binding: binds
Substance: growth differentiation factor 15 (GDF15) (from UniProt Q99988)
